This is one part of the list.

Protein sequences, listed by entry. Tags and fused reporters are not part of them. Lines headed by an entry give the natural chain unless they say otherwise; changes in a name come on top.
UniProt P24864, whole entry, looked up: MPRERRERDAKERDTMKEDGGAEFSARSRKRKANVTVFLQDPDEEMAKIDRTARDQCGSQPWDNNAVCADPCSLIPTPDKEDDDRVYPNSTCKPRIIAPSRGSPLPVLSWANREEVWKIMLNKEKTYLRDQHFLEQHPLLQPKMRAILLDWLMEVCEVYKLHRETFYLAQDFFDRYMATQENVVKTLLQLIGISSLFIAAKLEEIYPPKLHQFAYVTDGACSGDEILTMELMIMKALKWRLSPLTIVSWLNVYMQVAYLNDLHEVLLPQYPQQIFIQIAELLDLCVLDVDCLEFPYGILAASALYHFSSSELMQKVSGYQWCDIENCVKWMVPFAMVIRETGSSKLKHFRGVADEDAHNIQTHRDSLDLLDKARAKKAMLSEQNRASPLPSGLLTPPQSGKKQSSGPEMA
UniProt Q7Z3E2: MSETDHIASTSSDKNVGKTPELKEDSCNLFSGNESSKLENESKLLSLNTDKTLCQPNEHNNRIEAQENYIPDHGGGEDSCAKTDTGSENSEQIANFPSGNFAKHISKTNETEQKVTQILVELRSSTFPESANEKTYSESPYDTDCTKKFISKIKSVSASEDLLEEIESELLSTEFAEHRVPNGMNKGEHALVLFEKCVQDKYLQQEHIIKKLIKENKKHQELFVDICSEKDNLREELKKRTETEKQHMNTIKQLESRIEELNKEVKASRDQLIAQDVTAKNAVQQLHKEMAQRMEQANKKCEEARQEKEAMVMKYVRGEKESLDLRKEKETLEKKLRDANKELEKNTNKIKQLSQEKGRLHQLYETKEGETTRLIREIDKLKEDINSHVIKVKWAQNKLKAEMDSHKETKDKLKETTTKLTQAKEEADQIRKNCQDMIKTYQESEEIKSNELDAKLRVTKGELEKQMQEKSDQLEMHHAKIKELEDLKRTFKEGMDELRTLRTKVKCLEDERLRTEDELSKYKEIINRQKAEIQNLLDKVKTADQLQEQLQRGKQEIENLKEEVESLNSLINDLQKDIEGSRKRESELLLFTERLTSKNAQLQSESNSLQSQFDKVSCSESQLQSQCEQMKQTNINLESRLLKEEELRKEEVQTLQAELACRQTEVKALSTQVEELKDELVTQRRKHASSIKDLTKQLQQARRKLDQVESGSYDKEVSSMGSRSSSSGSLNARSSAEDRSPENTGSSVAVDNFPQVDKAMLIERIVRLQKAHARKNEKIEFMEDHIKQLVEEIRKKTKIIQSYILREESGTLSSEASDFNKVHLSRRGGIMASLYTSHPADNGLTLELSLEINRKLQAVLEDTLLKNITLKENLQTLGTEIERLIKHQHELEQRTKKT
UniProt Q6YHK3: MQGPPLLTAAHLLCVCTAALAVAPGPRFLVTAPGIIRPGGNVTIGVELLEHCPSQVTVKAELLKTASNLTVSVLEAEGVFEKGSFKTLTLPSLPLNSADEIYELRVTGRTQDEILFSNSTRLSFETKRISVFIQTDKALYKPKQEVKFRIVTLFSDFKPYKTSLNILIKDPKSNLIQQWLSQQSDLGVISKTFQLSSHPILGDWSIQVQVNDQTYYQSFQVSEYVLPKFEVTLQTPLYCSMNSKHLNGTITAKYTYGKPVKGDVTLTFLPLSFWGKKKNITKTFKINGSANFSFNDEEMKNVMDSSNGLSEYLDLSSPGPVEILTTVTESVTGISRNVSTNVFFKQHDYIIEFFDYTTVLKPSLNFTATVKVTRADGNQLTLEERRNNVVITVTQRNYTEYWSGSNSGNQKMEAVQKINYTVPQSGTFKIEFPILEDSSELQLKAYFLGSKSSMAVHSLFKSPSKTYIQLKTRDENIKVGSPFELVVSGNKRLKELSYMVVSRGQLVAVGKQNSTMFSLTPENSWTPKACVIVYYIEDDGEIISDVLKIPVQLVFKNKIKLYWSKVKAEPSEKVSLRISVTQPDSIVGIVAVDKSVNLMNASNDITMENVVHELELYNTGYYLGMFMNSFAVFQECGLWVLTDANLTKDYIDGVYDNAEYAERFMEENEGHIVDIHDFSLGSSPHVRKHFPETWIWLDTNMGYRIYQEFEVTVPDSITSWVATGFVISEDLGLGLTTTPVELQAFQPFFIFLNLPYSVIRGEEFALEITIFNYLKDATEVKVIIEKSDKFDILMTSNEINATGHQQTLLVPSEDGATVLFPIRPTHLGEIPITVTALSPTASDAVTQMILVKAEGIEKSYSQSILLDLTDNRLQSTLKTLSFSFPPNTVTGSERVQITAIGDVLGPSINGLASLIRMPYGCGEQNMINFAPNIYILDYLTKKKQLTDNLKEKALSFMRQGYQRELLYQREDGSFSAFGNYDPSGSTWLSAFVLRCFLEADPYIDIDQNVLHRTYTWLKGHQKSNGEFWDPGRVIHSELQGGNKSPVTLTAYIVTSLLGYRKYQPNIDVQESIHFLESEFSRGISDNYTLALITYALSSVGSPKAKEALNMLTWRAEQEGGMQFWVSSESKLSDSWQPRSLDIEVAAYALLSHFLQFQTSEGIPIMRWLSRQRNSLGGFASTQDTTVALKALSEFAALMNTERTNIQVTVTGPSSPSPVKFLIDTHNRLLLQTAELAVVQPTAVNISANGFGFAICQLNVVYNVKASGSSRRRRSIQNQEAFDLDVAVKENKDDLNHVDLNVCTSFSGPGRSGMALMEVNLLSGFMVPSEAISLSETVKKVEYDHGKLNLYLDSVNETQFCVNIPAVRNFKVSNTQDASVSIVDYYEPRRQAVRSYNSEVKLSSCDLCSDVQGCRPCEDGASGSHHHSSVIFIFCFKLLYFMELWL
UniProt Q8ND76: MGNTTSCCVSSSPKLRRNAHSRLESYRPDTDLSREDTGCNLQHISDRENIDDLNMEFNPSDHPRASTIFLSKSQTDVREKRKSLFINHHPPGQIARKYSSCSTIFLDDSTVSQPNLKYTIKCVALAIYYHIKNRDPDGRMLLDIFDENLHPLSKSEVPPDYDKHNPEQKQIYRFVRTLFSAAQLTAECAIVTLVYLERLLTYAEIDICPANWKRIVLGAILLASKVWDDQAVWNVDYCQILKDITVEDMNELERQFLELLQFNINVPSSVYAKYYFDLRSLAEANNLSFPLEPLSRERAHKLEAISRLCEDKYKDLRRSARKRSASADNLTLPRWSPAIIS
UniProt Q8N350: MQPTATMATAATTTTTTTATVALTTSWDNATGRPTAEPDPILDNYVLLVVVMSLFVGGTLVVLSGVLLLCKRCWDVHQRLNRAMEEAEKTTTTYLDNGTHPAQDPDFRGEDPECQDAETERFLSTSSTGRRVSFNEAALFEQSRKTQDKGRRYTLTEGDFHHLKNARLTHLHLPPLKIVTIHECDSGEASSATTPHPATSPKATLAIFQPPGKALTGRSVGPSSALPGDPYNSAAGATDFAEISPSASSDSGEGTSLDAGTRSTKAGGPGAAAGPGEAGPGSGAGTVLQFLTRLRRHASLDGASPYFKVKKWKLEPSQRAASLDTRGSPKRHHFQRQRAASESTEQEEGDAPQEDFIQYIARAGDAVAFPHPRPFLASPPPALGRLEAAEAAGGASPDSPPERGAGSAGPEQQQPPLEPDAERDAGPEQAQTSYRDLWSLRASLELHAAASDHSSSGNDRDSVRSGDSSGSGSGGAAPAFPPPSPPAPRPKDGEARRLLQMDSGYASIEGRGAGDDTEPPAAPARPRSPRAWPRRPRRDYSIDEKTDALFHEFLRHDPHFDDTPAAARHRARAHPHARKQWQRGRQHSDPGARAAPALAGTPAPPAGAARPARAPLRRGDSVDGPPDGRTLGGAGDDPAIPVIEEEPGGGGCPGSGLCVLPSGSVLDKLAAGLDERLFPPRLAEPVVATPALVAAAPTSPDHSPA
UniProt P24863: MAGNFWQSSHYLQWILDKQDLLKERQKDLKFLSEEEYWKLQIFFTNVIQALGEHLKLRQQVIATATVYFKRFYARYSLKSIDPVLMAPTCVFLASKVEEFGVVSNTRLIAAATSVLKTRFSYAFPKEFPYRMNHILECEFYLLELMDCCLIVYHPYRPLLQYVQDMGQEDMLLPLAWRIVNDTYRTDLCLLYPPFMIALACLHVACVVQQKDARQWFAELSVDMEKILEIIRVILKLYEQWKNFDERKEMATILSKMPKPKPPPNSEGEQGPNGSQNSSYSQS
UniProt Q13951, whole entry, looked up: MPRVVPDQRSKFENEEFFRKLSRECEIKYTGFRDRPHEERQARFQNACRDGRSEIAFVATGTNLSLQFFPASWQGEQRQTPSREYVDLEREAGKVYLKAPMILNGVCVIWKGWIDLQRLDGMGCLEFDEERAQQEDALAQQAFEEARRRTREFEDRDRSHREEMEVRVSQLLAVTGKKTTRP
UniProt Q12834, whole entry, looked up: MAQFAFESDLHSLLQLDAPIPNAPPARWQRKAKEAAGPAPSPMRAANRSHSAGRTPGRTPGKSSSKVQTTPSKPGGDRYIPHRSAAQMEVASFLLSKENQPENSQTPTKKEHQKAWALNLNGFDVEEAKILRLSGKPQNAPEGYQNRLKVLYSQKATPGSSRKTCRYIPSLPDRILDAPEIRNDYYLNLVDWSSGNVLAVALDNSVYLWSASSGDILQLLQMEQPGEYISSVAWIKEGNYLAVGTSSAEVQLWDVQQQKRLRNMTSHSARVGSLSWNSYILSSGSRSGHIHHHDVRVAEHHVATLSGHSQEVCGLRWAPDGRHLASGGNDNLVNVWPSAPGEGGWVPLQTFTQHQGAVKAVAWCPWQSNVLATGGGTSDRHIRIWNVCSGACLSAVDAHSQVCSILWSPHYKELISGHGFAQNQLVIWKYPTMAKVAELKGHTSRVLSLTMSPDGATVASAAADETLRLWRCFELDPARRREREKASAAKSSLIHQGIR
UniProt Q07108: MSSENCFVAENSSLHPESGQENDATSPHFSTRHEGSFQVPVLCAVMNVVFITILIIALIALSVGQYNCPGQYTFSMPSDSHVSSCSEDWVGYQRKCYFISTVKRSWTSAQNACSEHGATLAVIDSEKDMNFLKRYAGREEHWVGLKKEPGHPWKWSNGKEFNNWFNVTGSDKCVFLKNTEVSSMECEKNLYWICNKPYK
UniProt P15529: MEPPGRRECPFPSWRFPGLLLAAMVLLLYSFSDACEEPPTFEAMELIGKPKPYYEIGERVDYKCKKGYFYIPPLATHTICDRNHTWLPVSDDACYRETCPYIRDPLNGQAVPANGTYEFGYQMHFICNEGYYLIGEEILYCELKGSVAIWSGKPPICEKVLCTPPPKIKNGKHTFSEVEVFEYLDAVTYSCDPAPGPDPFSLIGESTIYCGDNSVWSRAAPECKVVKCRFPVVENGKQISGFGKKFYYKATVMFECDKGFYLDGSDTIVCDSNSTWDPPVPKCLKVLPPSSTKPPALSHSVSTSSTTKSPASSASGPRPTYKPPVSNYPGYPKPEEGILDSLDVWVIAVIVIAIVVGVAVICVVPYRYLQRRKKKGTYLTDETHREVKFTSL
UniProt P11049: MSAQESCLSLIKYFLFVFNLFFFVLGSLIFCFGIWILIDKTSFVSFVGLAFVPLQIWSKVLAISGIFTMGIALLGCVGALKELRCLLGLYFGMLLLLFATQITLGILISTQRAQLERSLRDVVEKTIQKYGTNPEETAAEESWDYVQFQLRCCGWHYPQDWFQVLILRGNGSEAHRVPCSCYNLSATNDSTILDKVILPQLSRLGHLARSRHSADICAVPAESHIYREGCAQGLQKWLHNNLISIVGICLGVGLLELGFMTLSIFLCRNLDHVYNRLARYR
UniProt Q9BUN5: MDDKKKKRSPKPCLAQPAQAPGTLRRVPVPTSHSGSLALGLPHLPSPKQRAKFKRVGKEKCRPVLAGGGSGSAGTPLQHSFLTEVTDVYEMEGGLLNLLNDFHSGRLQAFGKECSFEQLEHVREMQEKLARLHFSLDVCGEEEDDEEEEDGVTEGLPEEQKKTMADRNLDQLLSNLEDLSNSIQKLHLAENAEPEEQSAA
UniProt Q9BWV3: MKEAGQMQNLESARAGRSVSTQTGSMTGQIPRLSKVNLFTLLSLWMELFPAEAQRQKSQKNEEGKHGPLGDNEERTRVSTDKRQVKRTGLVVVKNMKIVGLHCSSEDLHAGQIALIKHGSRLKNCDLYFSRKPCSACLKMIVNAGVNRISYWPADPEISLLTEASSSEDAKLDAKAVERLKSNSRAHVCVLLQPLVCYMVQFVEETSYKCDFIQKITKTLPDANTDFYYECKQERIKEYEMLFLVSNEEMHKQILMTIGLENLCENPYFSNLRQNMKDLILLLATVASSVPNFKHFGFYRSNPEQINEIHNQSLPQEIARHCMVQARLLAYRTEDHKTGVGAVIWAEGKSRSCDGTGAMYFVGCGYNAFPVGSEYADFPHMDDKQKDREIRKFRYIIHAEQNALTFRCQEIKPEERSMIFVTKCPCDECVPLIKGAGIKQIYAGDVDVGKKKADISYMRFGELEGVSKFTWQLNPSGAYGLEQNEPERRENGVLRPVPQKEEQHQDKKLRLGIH

Compound in the assay: CN(C)CC(=O)Nc1ccc2[nH]c(=O)c3ccccc3c2c1
In words: log2 fold change, soluble protein after heating vs DMSO (PISA); higher = thermal stabilisation; K562 cells, 10 uM, 30 min; active = over 0.2 and 3.5 SD of the protein, either way, in both replicates (recomputed). A digest of the protocol: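 K562 cells at 2×10^6 cells/mL were treated with 10 μM compound for 30 min. Aliquots were heated for 3 min across 48°C-58°C, pooled, and extracted in PBS with 0.5% NP-40 at 4°C; soluble protein was the supernatant after 21,000xg for 90 min. Soluble protein was quantified by TMTpro 16plex LC-MS/MS with channel sums equalised, and reported as log2 fold change in thermal stability against DMSO controls, with values from duplicates.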
Regarding CCNE1 (UniProt P24864), the log2 fold change was inactive: -0.011. The same measure for CCNDBP1 (UniProt O95273): inactive: -0.094; for CCDC186 (UniProt Q7Z3E2): inactive: 0.048. The same measure for CD109 (UniProt Q6YHK3): inactive: 0.058; for CD99L2 isoform 5 (UniProt Q8TCZ2): inactive: -0.076. Consider CD2BP2 (UniProt O95400), for which the log2 fold change was inactive: 0.064. The same measure for CD44 (UniProt P16070): inactive: 0.021; for CCNY (UniProt Q8ND76): inactive: -0.065. As for CCDC158 (UniProt Q5M9N0), the log2 fold change was inactive: -0.149. For CBARP (UniProt Q8N350), the log2 fold change was inactive: -0.126. In the case of CCNC (UniProt P24863), the log2 fold change is inactive: -0.011. For CBFB (UniProt Q13951) the value was inactive: 0.111.

With CDC20 (UniProt Q12834), the log2 fold change was inactive: -0.128. As for CD69 (UniProt Q07108), the log2 fold change was inactive: -0.01. For CD46 (UniProt P15529) the value was inactive: 0.11; for CCT6B isoform 3 (UniProt Q92526), inactive: 0.016. Turning to CD37 (UniProt P11049), the log2 fold change is inactive: 0.022.

As to CCDC28B (UniProt Q9BUN5), the log2 fold change is inactive: 0.105.

For CDADC1 (UniProt Q9BWV3), the log2 fold change was inactive: 0.254.

These data come from the supplement of paper PMC10849652.
